{"source": "patent US20250123269A1", "about": "(priority 2023, published 2025)", "key": {"[1]": {"system": "SARS-COV-2 B.1.617.2 delta", "format": "cell-based"}, "[2]": {"system": "SARS-COV-2 B.1.1.529 omicron", "format": "cell-based"}}, "note": "At least one structure is not confirmed: it was looked up by name or label, or the drawing left a doubt."}
{"smiles": "CCC(CC)COC(=O)[C@H](C)N[P@](=O)(OC[C@H]1O[C@@](C#N)(c2ccc3c(N)ncnn23)[C@H](O)[C@@H]1O)Oc1ccccc1", "note": "[remdesivir]", "values": [{"measurement": "dose-dependent inhibition of infection", "setting": "[1]", "value": "dose-dependent inhibition of infection"}, {"measurement": "inhibition of virus", "setting": "[1]", "value": "inhibited"}, {"measurement": "dose-dependent inhibition of infection", "setting": "[2]", "value": "dose-dependent inhibition of infection"}, {"measurement": "inhibition of virus", "setting": "[2]", "value": "inhibited"}]}
